Assay [1] has as its target GST-RAB1A (UniProt P62820). As to the kind of experiment: pull-down; beads with about 5 μg GST-Rab pre-loaded with 0.5 mM GTPγS or 1 mM GDP, 1 h at 4 °C with lysate of HeLa over-expressing PPP2R1A; 50 mM HEPES-KOH pH 7.2, 150 mM NaCl, 1 mM MgCl2, 1% Triton-X-100; anti-Flag blot; only the target purified.
The target in assay [2] is GST-RAB2A (UniProt P61019). The description is as above.

Amino acid sequences for entries named in this document (tags omitted).
UniProt P62820: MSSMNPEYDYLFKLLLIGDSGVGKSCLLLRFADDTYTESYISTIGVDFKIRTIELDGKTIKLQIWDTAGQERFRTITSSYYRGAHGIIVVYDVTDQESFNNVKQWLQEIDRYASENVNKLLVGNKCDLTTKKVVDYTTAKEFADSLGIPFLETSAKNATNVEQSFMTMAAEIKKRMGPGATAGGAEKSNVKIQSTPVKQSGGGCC
UniProt P61019: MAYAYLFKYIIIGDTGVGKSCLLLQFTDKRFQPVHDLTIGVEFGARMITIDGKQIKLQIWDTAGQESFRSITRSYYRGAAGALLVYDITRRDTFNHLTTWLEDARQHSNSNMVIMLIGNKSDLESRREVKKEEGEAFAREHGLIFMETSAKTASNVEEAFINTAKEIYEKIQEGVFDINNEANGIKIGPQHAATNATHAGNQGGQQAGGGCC
UniProt P30153: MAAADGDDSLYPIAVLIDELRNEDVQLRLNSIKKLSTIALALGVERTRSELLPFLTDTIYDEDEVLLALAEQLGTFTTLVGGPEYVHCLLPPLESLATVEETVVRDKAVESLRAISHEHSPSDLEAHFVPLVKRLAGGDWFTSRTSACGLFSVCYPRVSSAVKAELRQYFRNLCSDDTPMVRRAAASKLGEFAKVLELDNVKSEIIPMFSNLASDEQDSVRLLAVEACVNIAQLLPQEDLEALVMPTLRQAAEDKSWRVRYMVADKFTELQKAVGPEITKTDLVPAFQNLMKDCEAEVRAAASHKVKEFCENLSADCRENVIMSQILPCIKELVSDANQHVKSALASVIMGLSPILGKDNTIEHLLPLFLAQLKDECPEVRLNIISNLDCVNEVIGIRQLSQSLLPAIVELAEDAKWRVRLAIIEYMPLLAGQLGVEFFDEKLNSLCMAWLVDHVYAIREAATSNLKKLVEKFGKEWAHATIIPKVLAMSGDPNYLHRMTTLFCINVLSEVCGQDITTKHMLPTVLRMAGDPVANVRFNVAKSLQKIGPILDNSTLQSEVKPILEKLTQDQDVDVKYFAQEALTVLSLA

No constants are given. Whether binding was seen depends on the method and setting. Binding seen in cells or lysates may run through a third protein. Some entries that bind do so weakly or less than the wild type.

With “PPP2R1A-Flag, wild type (from UniProt P30153 1-589)”, the binding entry in assay [1] and in assay [2] was “binds” each time.

(Values after article PMC5017145.)
